Assay results: PMC3929664, “A Panel of Diverse Assays to Interrogate the Interaction between Glucokinase and Glucokinase Regulatory Protein, Two Vital Proteins in Human Disease” (PLoS ONE, 2014)
Read-outs that look alike come from different tables or passages of the source.

Legend:
[1] = test system: cryopreserved pooled male Sprague-Dawley rat hepatocytes; experiment: GCK translocation in cryopreserved rat hepatocytes (high-content imaging); assay type: cell-based; settings: 2.5 mM glucose, 31.6 µM GKA, 2 hours
[2] = test system: cryopreserved human hepatocytes; experiment: GCK translocation in cryopreserved human hepatocytes (GKRP-positive cells); assay type: cell-based; settings: for EC50: Homo sapiens, Hepatocyte

SMILES: Cc1csc(NC(=O)c2cc(Sc3nncn3C)ccc2N)n1 [GKA-EMD, 2-Amino-5-(4-methyl-4H-(1,2,4)-triazole-3-yl-sulfanyl)-N-(4-methyl-thiazole-2-yl)benzamide]
- GCK translocation [1]: 83%
- EC50 ([2]; read-out: EC50 of GCK translocation, lot FOS, 2.5 mM glucose, mean ± SD): 3.4 ± 2 µM
- EC50 ([2]; read-out: EC50 of GCK translocation, lot FOS, 8.9 mM glucose, mean ± SD): 3.2 ± 1.4 µM
- EC50 ([2]; read-out: EC50 of GCK translocation, lot FOS, 16.8 mM glucose, mean ± SD): 1.7 ± 0.9 µM
- GCK translocation response ([2]; lot FOS): approximately two-fold at maximum
- GCK translocation response ([2]; lot TRZ, 2.5 mM glucose): approximately 4.5 fold
